{"source": "PubChem BioAssay AID652243 (Drosophila RNAi Screening Center, 2013)", "aim": "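Knock-downs that decrease or increase androgen receptor reporter signal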 (primary screen)", "system": "Drosophila S2R+ cells", "knock-down reagent": "long dsRNA against Drosophila genes", "time to read-out": "72 h (48 h, then 24 h hormone)", "treatment": "synthetic androgen R1881 at 10 nM for 24 h", "measured": "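Firefly light from an androgen-responsive reporter and Renilla control light per well, raw and unnormalised, for each of two replicates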", "reading the numbers": "firefly reporter light: higher = more light from androgen-responsive reporter; Renilla control light: higher = more constitutive control signal (cell number, transfection)", "call rule": "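Hit when the log firefly-to-Renilla ratio dropped or increased by a fixed fold versus the mean of GFP or LacZ controls across duplicate plates; lowering cut given as 1.5 and as 3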", "calls": "active = hit: reporter lowered or raised; inactive = no hit", "note": "The deposit covers about 24,000 reagents; below is an unselected part of those that have a named target and a result. In the full data, 246 (1%) are marked active. 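Plates not normalised; calls are printed but the firefly/Renilla ratio behind them is not deposited; fold cut for lowering reported inconsistently.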 Raw values are not corrected between plates. A number with no mark means an inactive call. The numbers tell different reagents against one gene apart. Not stated in the record: the amount of reagent."}
{"gene":"slif (slimfast)","reagent no.":1,"firefly reporter light, replicate 1":32617,"firefly reporter light, replicate 2":74432,"Renilla control light, replicate 1":3.26e5,"Renilla control light, replicate 2":4.86e5}
{"gene":"slif (slimfast)","reagent no.":2,"firefly reporter light, replicate 1":2.57e5,"firefly reporter light, replicate 2":2.26e5,"Renilla control light, replicate 1":6.45e5,"Renilla control light, replicate 2":7.31e5}
{"gene":"hwt (heavyweight)","reagent no.":1,"firefly reporter light, replicate 1":2.06e5,"firefly reporter light, replicate 2":2.93e5,"Renilla control light, replicate 1":2.04e6,"Renilla control light, replicate 2":3.11e6}
{"gene":"hwt (heavyweight)","reagent no.":2,"firefly reporter light, replicate 1":6.66e5,"firefly reporter light, replicate 2":6.15e5,"Renilla control light, replicate 1":3.83e6,"Renilla control light, replicate 2":3.52e6}
{"gene":"hwt (heavyweight)","reagent no.":3,"firefly reporter light, replicate 1":1.06e6,"firefly reporter light, replicate 2":1.19e6,"Renilla control light, replicate 1":1.10e6,"Renilla control light, replicate 2":1.57e6}
{"gene":"hwt (heavyweight)","reagent no.":4,"firefly reporter light, replicate 1":7.12e5,"firefly reporter light, replicate 2":9.05e5,"Renilla control light, replicate 1":1.14e6,"Renilla control light, replicate 2":1.15e6}
{"gene":"hwt (heavyweight)","reagent no.":5,"firefly reporter light, replicate 1":4.09e5,"firefly reporter light, replicate 2":5.95e5,"Renilla control light, replicate 1":1.48e6,"Renilla control light, replicate 2":1.48e6}

The list goes on (2 carried over from the part before).
{"gene":"hwt (heavyweight)","reagent no.":4,"firefly reporter light, replicate 1":7.12e5,"firefly reporter light, replicate 2":9.05e5,"Renilla control light, replicate 1":1.14e6,"Renilla control light, replicate 2":1.15e6}
{"gene":"hwt (heavyweight)","reagent no.":5,"firefly reporter light, replicate 1":4.09e5,"firefly reporter light, replicate 2":5.95e5,"Renilla control light, replicate 1":1.48e6,"Renilla control light, replicate 2":1.48e6}
{"gene":"NimB5 (Nimrod B5)","reagent no.":1,"firefly reporter light, replicate 1":2.29e5,"firefly reporter light, replicate 2":2.41e5,"Renilla control light, replicate 1":2.00e6,"Renilla control light, replicate 2":1.68e6}
{"gene":"CG32204","reagent no.":1,"firefly reporter light, replicate 1":84762,"firefly reporter light, replicate 2":1.29e5,"Renilla control light, replicate 1":2.18e5,"Renilla control light, replicate 2":2.26e5}
{"gene":"CG32204","reagent no.":2,"firefly reporter light, replicate 1":9.61e5,"firefly reporter light, replicate 2":8.59e5,"Renilla control light, replicate 1":1.08e6,"Renilla control light, replicate 2":1.00e6}
{"gene":"Sp1","reagent no.":1,"firefly reporter light, replicate 1":7.23e5,"firefly reporter light, replicate 2":7.50e5,"Renilla control light, replicate 1":1.15e6,"Renilla control light, replicate 2":1.24e6}
{"gene":"Sp1","reagent no.":2,"firefly reporter light, replicate 1":1.71e5,"firefly reporter light, replicate 2":1.44e5,"Renilla control light, replicate 1":2.94e6,"Renilla control light, replicate 2":2.42e6}
{"gene":"Sp1","reagent no.":3,"firefly reporter light, replicate 1":3.79e5,"firefly reporter light, replicate 2":2.75e5,"Renilla control light, replicate 1":1.01e6,"Renilla control light, replicate 2":6.93e5}
